No constants are given. Whether binding was seen depends on the method and setting. In cells and extracts the contact can be indirect. Here binding means that the protein was enriched with, or labelled near, the bait; the list need not be complete. Where a sequence is shown, tags or fusion partners need not be part of it.

The experiment addresses T1, HA::degron::RMH-1 (C. elegans) (UniProt P91399).
T1 sequence: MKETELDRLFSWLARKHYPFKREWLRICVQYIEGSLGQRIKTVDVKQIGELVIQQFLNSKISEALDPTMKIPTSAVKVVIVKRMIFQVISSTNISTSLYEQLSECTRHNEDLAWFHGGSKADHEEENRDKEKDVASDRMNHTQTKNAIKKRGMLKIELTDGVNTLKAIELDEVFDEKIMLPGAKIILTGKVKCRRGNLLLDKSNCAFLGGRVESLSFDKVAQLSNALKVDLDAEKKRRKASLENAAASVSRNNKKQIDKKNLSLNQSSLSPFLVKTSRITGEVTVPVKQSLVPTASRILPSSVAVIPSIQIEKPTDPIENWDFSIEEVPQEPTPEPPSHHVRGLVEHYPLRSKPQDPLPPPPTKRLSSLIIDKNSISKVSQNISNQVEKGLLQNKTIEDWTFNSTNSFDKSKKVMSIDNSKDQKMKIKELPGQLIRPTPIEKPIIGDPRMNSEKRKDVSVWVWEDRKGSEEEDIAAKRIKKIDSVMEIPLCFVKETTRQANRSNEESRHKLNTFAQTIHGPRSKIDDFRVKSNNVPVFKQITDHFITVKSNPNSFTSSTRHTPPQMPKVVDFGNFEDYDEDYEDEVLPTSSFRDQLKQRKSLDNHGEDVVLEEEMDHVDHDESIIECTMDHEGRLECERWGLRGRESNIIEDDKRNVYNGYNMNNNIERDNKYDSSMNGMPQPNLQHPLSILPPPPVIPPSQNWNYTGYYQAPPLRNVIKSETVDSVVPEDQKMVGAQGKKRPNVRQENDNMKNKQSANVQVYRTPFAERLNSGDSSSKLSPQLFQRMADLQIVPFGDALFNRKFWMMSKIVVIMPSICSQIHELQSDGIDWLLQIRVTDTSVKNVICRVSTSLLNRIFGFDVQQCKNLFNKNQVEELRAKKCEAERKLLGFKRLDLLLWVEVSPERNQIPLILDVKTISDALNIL
In words: affinity purification with mass spectrometry; HA-tagged RMH-1 immunoprecipitated on HA magnetic beads from at least 1 mg pooled soluble and insoluble nuclear fractions of worms; buffer D (150 mM KCl, 20 mM Hepes-KOH pH 7.9, 0.2% Triton X-100, 20% glycerol), overnight at 4°C; triplicate, against control.

As for TOP-3 (topoisomerase 3) (C. elegans), the binding entry was “binds”.

B1: RPA-1 (replication protein A) (protein, UniProt Q19537 1-655)
chain: MAAIHINHDVFNKYHTNGKLRLTTGYVQEAIENNGYPGHDGIVQVLKGKVEQGEQLGHAFTFRIRISDGVFQYNALMSADIDDQIKREVEHLVEGTIIALTKFEIYDQGEGAKNCFLIKGYKILSRYHQVLTSPEVKPRSHSGKPDEHKGYRPNIIIEDVWPEAEGMAADYQENMANPPAAKAPKREFGEEASYNRAAAPEATRARAVPPPARRTASNTERGVMPIAMVTPYVSNFKIHGMVSRKEEIRTFPAKNTKVFNFEITDSNGDTIRCTAFNEVAESLYTTITENLSYYLSGGSVKQANKKFNNTGHDYEITLRSDSIIEAGGELLAAPKLILKRVKLGEIAGYAGQLIDVLVVVEKMDPEATEFTSKAGKSLIKREMELIDESGALVRLTLWGDEATKALVDDYVQKVIAFKGVIPREFNGGFSLGTGSATRIISVPEIAGVSELYDWYANVKPTTEVKMMSQAAGGSNEAPRTIAGLQEMQFGKDSDKGDYATVKAMITRVNPTNALYRGCASEGCQKKLVGENGDYRCEKCNKNMNKFKWLYMMQFELSDETGQVYVTAFGDSAAKIVGKSAAELGELHDESPDEYNAIFERLQFVPKMWRLRCKMDSYNEEVRQKMTVYGVDDVNQDKYIENLKQMIEQMQQMSDY
Regarding B1, the binding result is recorded as “binds”.

B2: HIM-6 (Bloom helicase) (protein, UniProt O18017 1-988)
chain: MIKNREIEVAPPRRTIQFGGYTFVEPDLNFKAPIFSCCGSIRDPSCEEREEEYIDNGHDEEPPVEVNRIQESTSFDEPVSSPPRYRPSENPGPSSSSYEPGHYSFNEYQQFPSRPQKRLVDPPIVDLDEEPPIVDLDDSFDNFHVGSTSEEVVSGDIAPEEEEEEGHDSFDDFESVPAQPPSKNTLASLQKSDSEIALNQQRHDMHGRFRGFLQDDSEEFSDEVGLLGADMNKELYDTLKSKFGFNQFRHRQKQCILSTLMGHDTFVLMPTGAGKSLCYQLPAVILPGVTVVVSPLRSLIEDQKMKMKELGIGCEALTADLGAPAQEKIYAELGSGNPSIKLLYVTPEKISASGRLNSVFFDLHRRGLLARFVIDEAHCVSQWGHDFRPDYTKLSSLREKYANPPVPIIALTATATPKIVTDARDHLKMQNSKLFISSFVRDNLKYDLIPKAARSLINVVEKMKQLYPGKSGIVYCLSRKECETVQMMLTKAGLSAEVYHAGLNDNLRVSVQRSWIANKFDVICATIAFGMGIDKPDVRFVIHYSLPKSIEGYYQETGRAGRDGMPSYCLMLYSYHDSIRLRRMIEEGNTTTGVRSMHLNNVLQVVAYCENVSVCRRKMLVEHFGEVYDEQSCRNSKTPCDICERQRKNAEAIRLFDVSTDALSILKCLPRMQKATLKYISELYRGALIKKSQEQAMRLGHTKLPFYSKGQGMSEQDALRFVRKLVIEGYIHERLYSVPNQAAAVFAYAELTEAGRDLANGKKTAKVYLHIVTCERKRKNAGLIELSNMNIVSEAQALKERHMVKHGDVFTRCLQDLTHLITAVAESSGLSGPYSIVSREGIEQIAALLPRTNSDLLRIDSMTQIKVTKYGRLIMELLATYWKQVDEREEEEMRNQLDKLKSGEIVMGGFATLQSDPGFPSVPYMKPLGGGGGCRGRGKKRAFSGFSSGRATKKPRATAPSARGKTSGRGGAKPATSLKRNMYPATSM
In the case of B2, the binding result is on record as “binds”.

The values above are taken from publication PMC8318279.
